The series is described as follows: in vivo. The note with it: Sprague-Dawley, rat, ip, 10 mg/kg.

As to `CN1CC[C@]23c4c5ccc(O)c4O[C@H]2[C@@H](O)C=C[C@H]3[C@H]1C5` [Morphine, reference compound], the Kp turned out to be 0.42 ± 0.13.

The record behind these values is patent publication US6825205B2 (priority 2002, dated 2004).
